At least one compound was matched to its structure with a doubt left.
Assays:
PI3K = test: Akt phosphorylation (Thr 308) as functional measure of PI3K activity in OT-I cells; type: cell-based, mouse; details: IL-12 augmented, up to 48 hr; LY294002 10 μM
mTOR = target: T1, mTOR (Mus musculus, UniProt P26883+Q9JLN9); test: mTOR activity (mTOR, S6K and S6 phosphorylation by ICS) in stimulated OT-I cells; type: cell-based; details: 2, 12 and 48 hr; PI3K inhibition, LY294002 10 μM
T1 construct: endogenous in cells; host or cells: naive OT-I CD8+ T cells (TCR transgenic Rag2-/- mice) stimulated with Ag+B7.1 +/- IL-12
Method: FIG. 1. […] (A and B) OT-I cells stimulated with BOK (Ag+B7.1) (±) IL-12 were evaluated for (A) IFN-γ by ICS and (B) cytolytic activity (primary, 72 hr poststimulation; secondary, 24 hr postsecondary stimulation); ***p<0.0002. (C-E) OT-I cells stimulated with antigen (Ag) (the antigen is a peptide consisting of Ser Ile Ile followed by Asn Phe Glu which are followed by Lys and Lue (OVAp), used at 10 nM) plus B7.1 (100 μg/ml)(Ag+B7.1)(±) IL-12 (2 ng/ml) were evaluated by ICS at the indicated time points for (C) phosphorylated mTOR, (D) phosphorylated S6K, and (E) phosphorylated ribosomal S6. For mTOR inhibition, rapamycin (20 ng/ml) was added 30 min prior to addition of antigen, cytokine Data are representative of at least three independent experiments with similar outcomes. (Data are presented as mean±SEM.)
Stimulation of OT-1 Cells. […]
Although the kinase mTOR has been implicated as an integrator of various extracellular signals and a sensor for internal energy levels for determination of cell fate, the role for mTOR in integrating instructions that program naive CD8^+ T cells for type I effector differentiation is unclear. […] To verify that the induction of mTOR phosphorylation also led to its kinase activity, we monitored the kinetics of p70 S6K phosphorylation (Ser 371), a direct target of mTOR kinase activity. […]

Question: What does the source list for `O=c1cc(N2CCOCC2)oc2c(-c3ccccc3)cccc12` [LY294002]?
Answer: Akt phosphorylation (Thr 308) (PI3K): blocked; IL-12 augmented mTOR activity (S6K phosphorylation) (mTOR): blocked
